Measurements: PMC10936212
For at least one entry, the source does not settle the construct or the ends of the probe.

How the values were obtained:
[1] = molecular target: T1, CosR (Campylobacter jejuni) (UniProt A0A3H9R6A1); assay: cryo-EM; details: 20 uM CosR, 10 uM DNA, apo, complex and free DNA classes seen, only apo model (8UUZ) deposited; recombinant protein; protein details: C-terminal 6xHis
[2] = molecular target: T1, CosR (Campylobacter jejuni); assay: X-ray crystallography; details: recombinant protein, protein details: C-terminal 6xHis

AATAATTTTATTAACCAAAATTAAGATATAATTAGCCAAA (double strand) [40 bp cmeABC promoter DNA]
binding result [1]: binds

AATTAAGATATTATTAACCAA (double strand) [DNA2 (crystal)]
binding result ([2]; 2.20 A, one dimer per duplex): binds

TATTAACCAAAATTAAGATAT (double strand) [DNA1 (crystal)]
binding result ([2]; 2.90 A, dimer bridges two DNA1 duplexes): binds
